# Reference: paper PMC5647368
# Amino acid sequences for entries named in this document (tags omitted). A change or cut given only in a name is not applied to a line headed by its entry. Chains listed by the source or under a name are the forms on record and can include a tag or linker. Residues count along the entry.
# UniProt Q04206: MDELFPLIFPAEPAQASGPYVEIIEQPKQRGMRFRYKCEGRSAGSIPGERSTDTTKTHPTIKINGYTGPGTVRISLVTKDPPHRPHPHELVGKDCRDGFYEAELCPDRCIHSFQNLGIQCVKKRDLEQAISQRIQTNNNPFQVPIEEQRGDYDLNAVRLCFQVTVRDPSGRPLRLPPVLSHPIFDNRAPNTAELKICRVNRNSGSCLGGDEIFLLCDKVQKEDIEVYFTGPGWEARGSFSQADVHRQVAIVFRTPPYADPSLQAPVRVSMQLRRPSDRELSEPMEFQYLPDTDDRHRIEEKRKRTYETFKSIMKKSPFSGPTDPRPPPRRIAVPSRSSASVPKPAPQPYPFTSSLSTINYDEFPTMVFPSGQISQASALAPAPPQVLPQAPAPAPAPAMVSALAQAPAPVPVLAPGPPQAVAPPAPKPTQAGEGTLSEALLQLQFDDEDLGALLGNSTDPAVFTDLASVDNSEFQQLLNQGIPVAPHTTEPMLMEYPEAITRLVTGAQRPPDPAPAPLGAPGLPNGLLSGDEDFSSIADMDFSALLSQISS
# Flag-tagged p65/RelA truncation D1 (RHD domain): residues 19-306 of Q04206
# Results are given in words; binding and its absence hold for the method and conditions named. In cells and extracts the contact can be indirect. Some binding calls cover weakened binding; strength is not graded here. For some of these results: Where a sequence is shown, tags or fusion partners need not be part of it.
# B1: Myc-tagged LRRC25 (protein, UniProt Q8N386 21-305)
# chain: LEPSCTVSSADVDWNAEFSATCLNFSGLSLSLPHNQSLRASNVILLDLSGNGLRELPVTFFAHLQKLEVLNVLRNPLSRVDGALAARCDLDLQADCNCALESWHDIRRDNCSGQKPLLCWDTTSSQHNLSAFLEVSCAPGLASATIGAVVVSGCLLLGLAIAGPVLAWRLWRCRVARSRELNKPWAAQDGPKPGLGLQPRYGSRSAPKPQVAVPSCPSTPDYENMFVGQPAAEHQWDEQGAHPSEDNDFYINYKDIDLASQPVYCNLQSLGQAPMDEEEYVIPGH
# B2: LRRC25 (endogenous, PBMCs) (protein, UniProt Q8N386 21-305)
# chain: B1 chain
# B3: LRRC25 (endogenous, THP-1 cells) (protein, UniProt Q8N386 21-305)
# chain: B1 chain
# Key:
# [1] = target: Flag-tagged p65/RelA full length (UniProt Q04206); test: co-IP; extracts of HEK293T cells co-transfected with two tagged constructs, harvested 24 h after transfection; immunoprecipitation (anti-Flag in Fig. 5D and 5F) and immunoblot for the other tag; beads washed six times with low-salt lysis buffer (50 mM Hepes pH 7.5, 150 mM NaCl, 1 mM EDTA, 1.5 mM MgCl2, 10% glycerol, 1% Triton X-100)
# [2] = target: Flag-tagged p65/RelA truncation D1 (RHD domain) (UniProt Q04206); test: as above
# [3] = target: p65/RelA (endogenous, PBMCs) (not stated (endogenous in PBMCs)) (UniProt Q04206); test: co-IP; endogenous proteins; PBMCs treated with 200 ng/ml LPS for 0, 60 and 120 min; cell extracts precipitated with anti-p65/RelA, immunoblot with anti-LRRC25; IgG isotype control
# [4] = target: p65/RelA (endogenous, THP-1 cells) (human (endogenous in THP-1)) (UniProt Q04206); test: co-IP; endogenous proteins; THP-1 cells treated with or without LPS; cell extracts precipitated with anti-p65/RelA, immunoblot with anti-LRRC25 or anti-p62; IgG control
binder,measurement,setting,value
B1,binding,[1],binds
same,binding,[2],binds
B2,binding,[3],binds
B3,binding,[4],binds
